Assay results

Data taken from PubChem BioAssay AID1035470, deposited by Broad Institute (2014).

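Wild-type GFP-tagged E. coli compared with a G2058-humanized RFP-tagged strain; fluorescence read after 24 hours of exposure.
The value is the change in activity at the top tested concentration; more negative means stronger inhibition.
Active means the normal-ribosome signal drops at least twice as much as the mutant signal without a large loss of growth; inconclusive means no clear call.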

All entries here are filed as inconclusive.
Only part of the assay is shown, chiefly results filed as inconclusive.

Result for CC(=O)c1sc(NC(=O)c2ccccc2)nc1-c1ccccc1 [at 50 µM (top of the series)] was activity change -63.91.
Result for COc1cc2c(cc1NC(=O)C(C)Sc1cccc[n+]1[O-])oc1ccccc12 (stereo not drawn) [at 50 µM (top of the series)] was activity change -32.5.
Result for O=C(O)c1cccc2c1-c1ccc([N+](=O)[O-])cc1C2=O [at 50 µM (top of the series)] was activity change 4.632.
Result for CC(C)CN(C(=O)c1cc([N+](=O)[O-])cc([N+](=O)[O-])c1)C1CCS(=O)(=O)C1 (stereo not drawn) [at 50 µM (top of the series)] was activity change 9.185.
Result for COc1cccc(NC(=O)c2ccc(NCCCN3CC(C)CC(C)C3)c([N+](=O)[O-])c2)c1 (stereo not drawn) [at 50 µM (top of the series)] was activity change 5.814.
Result for Cc1ccc(C(=O)OCC(=O)c2c[nH]c3ccccc23)cc1NC(=O)c1ccco1 [at 50 µM (top of the series)] was activity change -33.88.
Result for Cc1sc(C(=O)Nc2ccc3ccccc3c2)cc1CC(=O)O [at 50 µM (top of the series)] was activity change -39.62.
Result for Fc1cccc(Cc2noc(CN3CCCCC3CCc3ccccn3)n2)c1 (stereo not drawn) [at 50 µM (top of the series)] was activity change -2.09.
Result for CCc1cc(C(=O)N2CCCC(C(=O)c3cccc4ccccc34)C2)n(C)n1 (stereo not drawn) [at 50 µM (top of the series)] was activity change -0.833.
Result for CCN(CC)CCCN(C(=O)c1ccco1)c1nc(-c2ccc(C)cc2)cs1 [at 50 µM (top of the series)] was activity change -24.91.
Result for Cc1cc2nc(-c3ccc4c(c3)CCC4)ccn2n1 [at 50 µM (top of the series)] was activity change -19.78.
Result for COc1ccccc1CC(=O)NCc1csc(-c2cccs2)n1 [at 50 µM (top of the series)] was activity change -16.12.
Result for CC(NC(=O)C12CC3CC(C)(CC(C)(C3)C1)C2)c1ccncc1 (stereo not drawn) [at 50 µM (top of the series)] was activity change -6.645.
Result for COc1ccccc1C(=O)COC(=O)c1cccs1 [at 50 µM (top of the series)] was activity change -14.88.
Result for O=C(Nc1ccccc1F)N1CCCCN2[C@@H](CO)[C@H](c3ccc(C#Cc4cccnc4)cc3)[C@@H]2C1 [at 50 µM (top of the series)] was activity change -18.48.
Result for CCc1ccc(CN2CCCC(CNS(=O)(=O)c3ccc(OC)cc3)C2)cc1 (stereo not drawn) [at 50 µM (top of the series)] was activity change 12.74.
Result for CC(C)NC(=O)N(C)C[C@H]1OCCCC[C@@H](C)Oc2ccc(NC(=O)Nc3cccc4ccccc34)cc2C(=O)N([C@@H](C)CO)C[C@H]1C [at 26 µM (top of the series)] was activity change 33.41.
Result for Cc1ccc2c(c1C)OC(=O)CC2c1ccccc1 (stereo not drawn) [at 50 µM (top of the series)] was activity change -37.9.
Result for O=C(NCc1ccccc1)c1cc(S(=O)(=O)N2CCCCC2)ccc1N1CCOCC1 [at 50 µM (top of the series)] was activity change -20.95.
Result for COCCN(C(=O)c1ccccc1F)c1nnc(-c2ccc(OC)cc2)s1 [at 50 µM (top of the series)] was activity change -14.54.
Result for COc1cccc(S(=O)(=O)N2CCCCN3[C@H](C2)[C@@H](c2ccc(C#CC(C)C)cc2)[C@@H]3CO)c1 [at 50 µM (top of the series)] was activity change -5.042.
Result for CCOC(=O)c1c(C)nsc1NCc1ccccc1 [at 50 µM (top of the series)] was activity change -13.14.
Result for COc1ccc(-c2nnc(COc3ccc(Br)cc3C)o2)cc1 [at 50 µM (top of the series)] was activity change -14.91.
Result for CC(C)(C)c1cc(-c2n[nH]c(=S)n2-c2ccc(Cl)cc2)n[nH]1 [at 50 µM (top of the series)] was activity change -17.46.
Result for O=C(NCc1ccco1)c1ccc2ccccc2n1 [at 50 µM (top of the series)] was activity change 2.73.
Result for COc1ccccc1CNC(=O)c1cc2sccc2n1C [at 50 µM (top of the series)] was activity change -6.093.
Result for Cc1noc2ncnc(SCc3ccc(C(F)(F)F)cc3)c12 [at 50 µM (top of the series)] was activity change -18.37.
Result for NC(=O)C1CCN(c2cc(Cl)ccc2[N+](=O)[O-])CC1 [at 50 µM (top of the series)] was activity change 13.67.
Result for CN(C)C(=O)C1C2NC(=S)N(c3cccc(Cl)c3)C1(C)Oc1ccc(Cl)cc12 (stereo not drawn) [at 50 µM (top of the series)] was activity change -27.92.
Result for O=C(Nc1cccnc1)c1sc2cccc(F)c2c1Cl [at 50 µM (top of the series)] was activity change 2.231.
Result for O=S1(=O)c2ccccc2C(O)(c2ccccc2)c2ccccc21 [at 50 µM (top of the series)] was activity change -25.71.

For reference, 4 entries once more:

structure	setting	activity change
COc1cccc(NC(=O)c2ccc(NCCCN3CC(C)CC(C)C3)c([N+](=O)[O-])c2)c1 (stereo not drawn)	at 50 µM (top of the series)	5.814
CCOC(=O)c1c(C)nsc1NCc1ccccc1	at 50 µM (top of the series)	-13.14
CC(C)CN(C(=O)c1cc([N+](=O)[O-])cc([N+](=O)[O-])c1)C1CCS(=O)(=O)C1 (stereo not drawn)	at 50 µM (top of the series)	9.185
CCc1ccc(CN2CCCC(CNS(=O)(=O)c3ccc(OC)cc3)C2)cc1 (stereo not drawn)	at 50 µM (top of the series)	12.74